Laboratory results taken from PubChem BioAssay AID330 (DTP/NCI, 2004).
The list is a part of this screen's results and no random one: it is rich in T/C values a quarter to a half above the control, in often repeated tests (any T/C) and in doses without a T/C. Other doses and runs of a compound stand elsewhere. T/C: endpoint of the treated group in % of that of the vehicle group. Some entries give survivors of the animals treated and no T/C: the source holds a T/C of zero for them, seemingly a mark for toxic or unscored doses. Some survivor counts are full or nearly so, which does not show that the dose was tolerated: survival well below the control is almost never listed, so the zero probably covers shortened survival too. Counts of survivors are from the toxicity check (mostly the fifth day) where no day follows; animals may have died later. Schedule codes are those of the source, taken here to give the interval after Q, in days (D) or hours (H), and the number of doses after X. Some structures stand for samples that the source files as different forms (salt, stereo form or complex); doses refer to the form tested. Some entries hold several experiments; their values stand side by side, smallest first. For survival time, this PubChem deposit counts one and a half times the control or more as active, and values a quarter to a half above the control carry no call in these data; other NCI protocols may use other cut-offs. Some T/C values are followed by the survivors on the day toxicity was checked, most often the fifth; without a count, all were alive then.

Tested on: P388 leukemia ip, CD2F1 mice, survival T/C
Assay: NCI In Vivo Anticancer Drug Screen. Data for tumor model P388 Leukemia (intraperitoneal) in CD2F1 (CDF1) mice
Settings: T/C endpoint: median survival time, higher T/C = longer survival
[1] = dose: 100.0 mg/kg/injection, schedule: Q01DX005 (ip), vehicle: saline with Tween-80
[2] = dose: 200.0 mg/kg/injection, schedule: Q01DX005 (ip), vehicle: saline with Tween-80
[3] = dose: 100.0 mg/kg/injection, schedule: Q01DX009 (ip), vehicle: saline
[4] = dose: 200.0 mg/kg/injection, schedule: Q01DX009 (ip), vehicle: saline
[5] = dose: 400.0 mg/kg/injection, schedule: Q04DX003 (ip), vehicle: saline with Tween-80
[6] = dose: 240.0 mg/kg/injection, schedule: Q01DX005 (ip), vehicle: saline
[7] = dose: 25.0 mg/kg/injection, schedule: Q01DX009 (ip), vehicle: saline with Tween-80
[8] = dose: 50.0 mg/kg/injection, schedule: Q01DX009 (ip), vehicle: saline with Tween-80
[9] = dose: 5.0 mg/kg/injection, schedule: Q04DX003 (ip), vehicle: saline with Tween-80
[10] = dose: 25.0 mg/kg/injection, schedule: Q01DX009 (ip), vehicle: distilled water + Tween-80

`CCCCC(=S)SSC(C)(C)C` was tested, and the survivor count [1] was 4 of 6 and the survivor count [2] was 0 of 6.
With `CSc1nc(N)c(C(=O)c2sc(SC)nc2N)s1` the survivor count (dose: 100.0 mg/kg/injection, schedule: Q01DX005 (ip), vehicle: Klucel (hydroxypropylcellulose) (HPC)) was 6 of 6 and the survivor count (dose: 200.0 mg/kg/injection, schedule: Q01DX005 (ip), vehicle: Klucel (hydroxypropylcellulose) (HPC)) was 6 of 6.
For `CN(C)c1ccc(C(=NNC(N)=S)c2ccc(N(C)C)cc2)cc1`, the survivor count (dose: 100.0 mg/kg/injection, schedule: Q04DX003 (ip), vehicle: Klucel (hydroxypropylcellulose) (HPC)) was 0 of 6, the survivor count (dose: 200.0 mg/kg/injection, schedule: Q04DX003 (ip), vehicle: Klucel (hydroxypropylcellulose) (HPC)) was 0 of 6 and the survivor count (dose: 400.0 mg/kg/injection, schedule: Q04DX003 (ip), vehicle: Klucel (hydroxypropylcellulose) (HPC)) was 0 of 6.
With `Cc1ncc(C[n+]2cccc(CCO)c2C)c(N)n1` the survivor count (dose: 400.0 mg/kg/injection, schedule: Q04DX003 (ip), vehicle: saline) was 0 of 6.
In the case of `C[CH2][Sn]([c]1ccccc1)[c]1ccccc1`, the T/C [3] was 133 [4 of 6 alive] and 142 % of control, the survivor count [4] was 6 of 6 and the survivor count (dose: 200.0 mg/kg/injection, schedule: Q04DX003 (ip), vehicle: saline) was 1 of 6.
With `CC(OC(=O)c1ccccc1C(=O)O)c1ccccc1` (centres undefined) the survivor count [3] was 1 of 6 and the survivor count [4] was 0 of 6.
With `Cc1ncn2cnnc2c1C` the survivor count [5] was 3 of 6.
`Cc1cc2c(C(C)C)c(O)c(O)c(C=NC3CCCCC3)c2c(O)c1-c1c(C)cc2c(C(C)C)c(O)c(O)c(C=NC3CCCCC3)c2c1O` was tested, and the survivor count (dose: 50.0 mg/kg/injection, schedule: Q01DX005 (ip), vehicle: saline with Tween-80) was 5 of 5, the survivor count [1] was 5 of 5 and the survivor count [2] was 5 of 5.
`O=P(c1ccccc1)(c1ccccc1)c1ccccc1.O=P(c1ccccc1)(c1ccccc1)c1ccccc1.O=P(c1ccccc1)(c1ccccc1)c1ccccc1.O=P(c1ccccc1)(c1ccccc1)c1ccccc1.[Co+2].[O-][Cl+3]([O-])([O-])O` was tested, and the survivor count (dose: 200.0 mg/kg/injection, schedule: Q01DX009 (ip), vehicle: saline with Tween-80) was 3 of 6.
With `C=CCN(C#N)CC=C` the survivor count [3] was 2 of 6 and the survivor count [4] was 0 of 6.
With `S=C(S)N1CCCCCC1` the survivor count (dose: 240.0 mg/kg/injection, schedule: Q01DX005 (ip), vehicle: suspension in saline) was 4 of 6.
With `O=C([CH-]C(=O)C(F)(F)F)c1ccccc1.O=C([CH-]C(=O)C(F)(F)F)c1ccccc1.O=C([CH-]C(=O)C(F)(F)F)c1ccccc1.O=C([CH-]C(=O)C(F)(F)F)c1ccccc1.[Eu+3].c1ccncc1` the T/C (dose: 200.0 mg/kg/injection, schedule: Q01DX009 (ip), vehicle: Klucel (hydroxypropylcellulose) (HPC)) was 127 % of control.
For `C/C(=N\N=C(N)N)c1c(C)nn(C(=N)N)c1C`, the survivor count (dose: 120.0 mg/kg/injection, schedule: Q01DX005 (ip), vehicle: saline) was 1 of 6 and the survivor count [6] was 0 of 6.
With `NC(=O)/C=C/C(=O)c1c(Cl)cccc1Cl` the survivor count [7] was 4 of 6 and the survivor count [8] was 0 of 6.
In the case of `CC(C)N1C(C)(C)C1(C)C#N` (centres undefined), the survivor count [6] was 0 of 6.
With `CCCCCCCCCCCCCCCC[N+](C)(C)CCSC(C)=O` the survivor count (dose: 12.5 mg/kg/injection, schedule: Q01DX009 (ip), vehicle: acetone) was 0 of 6, the survivor count (dose: 25.0 mg/kg/injection, schedule: Q01DX009 (ip), vehicle: acetone) was 0 of 6 and the survivor count (dose: 50.0 mg/kg/injection, schedule: Q01DX009 (ip), vehicle: acetone) was 0 of 6. For the same molecule, the survivor count (dose: 100.0 mg/kg/injection, schedule: Q01DX009 (ip), vehicle: acetone) was 0 of 6 and the survivor count (dose: 200.0 mg/kg/injection, schedule: Q01DX009 (ip), vehicle: acetone) was 0 of 6.
With `COC1C(O)CC(OC2CC(OC3CC(O[C@@H]4C(=O)c5c(cc6cc(OC7CC(OC8CC(O)C(O)C(C)O8)C(O)C(C)O7)c(C)c(O)c6c5O)C[C@H]4[C@H](OC)C(=O)[C@@H](O)[C@@H](C)O)OC(C)C3O)OC(C)C2O)OC1C` (some centres undefined) the T/C (dose: 375.0 micrograms/kg/injection, schedule: Q01DX009 (ip), vehicle: water) was 133 % of control, the T/C (dose: 750.0 micrograms/kg/injection, schedule: Q01DX009 (ip), vehicle: saline) was 138 % of control and the T/C (dose: 750.0 micrograms/kg/injection, schedule: Q01DX009 (ip), vehicle: water) was 135 % of control. For the same molecule, the T/C (dose: 1500.0 micrograms/kg/injection, schedule: Q01DX009 (ip), vehicle: water) was 144 % of control, the survivor count (dose: 3000.0 micrograms/kg/injection, schedule: Q01DX009 (ip), vehicle: saline) was 6 of 6 and the survivor count (dose: 3000.0 micrograms/kg/injection, schedule: Q01DX009 (ip), vehicle: water) was 5 of 6.
In the case of `CN(C)CCNc1ccc(O)c2sc3ccccc3c(=O)c12`, the survivor count [5] was 1 of 6.
For `O=C1c2ccccc2C(=O)N1CC[P+](c1ccccc1)(c1ccccc1)c1ccccc1`, the T/C (dose: 5.56 mg/kg/injection, schedule: Q01DX009 (ip), vehicle: water) was 136 % of control, the T/C (dose: 6.25 mg/kg/injection, schedule: Q01DX009 (ip), vehicle: water) was 128, 130, 133 % of control and the T/C (dose: 8.33 mg/kg/injection, schedule: Q01DX009 (ip), vehicle: water) was 140 % of control. The T/C (dose: 12.0 mg/kg/injection, schedule: Q01DX009 (ip), vehicle: saline with Tween-80) was 136 % of control, the T/C (dose: 12.5 mg/kg/injection, schedule: Q01DX009 (ip), vehicle: saline with Tween-80) was 142 % of control and the T/C (dose: 12.5 mg/kg/injection, schedule: Q01DX009 (ip), vehicle: water) was 132 and 140 % of control. For the same molecule, the survivor count [7] was 6 of 6, the survivor count (dose: 25.0 mg/kg/injection, schedule: Q01DX009 (ip), vehicle: water) was 0 of 6 and 3 of 6 and the survivor count [8] was 1 of 6. For the same molecule, the survivor count (dose: 100.0 mg/kg/injection, schedule: Q01DX009 (ip), vehicle: saline with Tween-80) was 0 of 6.
In the case of `NC(=S)c1cn(C2OC(CO)C(O)C2O)c2ncnc(N)c12` (centres undefined), the T/C (dose: 1.25 mg/kg/injection, schedule: Q01DX009 (ip), vehicle: saline) was 127 and 145 % of control, the T/C (dose: 2.1 mg/kg/injection, schedule: Q01DX009 (ip), vehicle: saline with Tween-80) was 138 % of control and the T/C (dose: 2.5 mg/kg/injection, schedule: Q01DX009 (ip), vehicle: saline) was 131 % of control. For the same molecule, the T/C (dose: 2.5 mg/kg/injection, schedule: Q04DX003 (ip), vehicle: saline with Tween-80) was 128 % of control, the T/C (dose: 3.3 mg/kg/injection, schedule: Q01DX009 (ip), vehicle: saline with Tween-80) was 145 % of control and the survivor count (dose: 3.3 mg/kg/injection, schedule: Q04DX003 (ip), vehicle: saline with Tween-80) was 6 of 6. The T/C (dose: 5.0 mg/kg/injection, schedule: Q01DX009 (ip), vehicle: saline) was 140 % of control, the T/C [9] was 133 % of control and the survivor count [9] was 6 of 6. The survivor count (dose: 7.5 mg/kg/injection, schedule: Q01DX009 (ip), vehicle: saline with Tween-80) was 4 of 6, the survivor count (dose: 7.5 mg/kg/injection, schedule: Q04DX003 (ip), vehicle: saline with Tween-80) was 6 of 6 and the survivor count (dose: 10.0 mg/kg/injection, schedule: Q04DX003 (ip), vehicle: saline with Tween-80) was 3 of 6.
`CC(=O)Oc1c([N+](=O)[O-])cccc1[N+](=O)[O-]` was tested, and the T/C [10] was 126 % of control [5 of 6 alive], the survivor count [10] was 4 of 6 and the survivor count (dose: 50.0 mg/kg/injection, schedule: Q01DX009 (ip), vehicle: clinical formulation) was 3 of 6. For the same molecule, the survivor count (dose: 50.0 mg/kg/injection, schedule: Q01DX009 (ip), vehicle: distilled water + Tween-80) was 3 of 6, the survivor count (dose: 100.0 mg/kg/injection, schedule: Q01DX009 (ip), vehicle: clinical formulation) was 2 of 6 and the survivor count (dose: 100.0 mg/kg/injection, schedule: Q01DX009 (ip), vehicle: distilled water + Tween-80) was 1 of 6. For the same molecule, the survivor count (dose: 200.0 mg/kg/injection, schedule: Q01DX009 (ip), vehicle: distilled water + Tween-80) was 0 of 6 and the survivor count (dose: 400.0 mg/kg/injection, schedule: Q01DX009 (ip), vehicle: distilled water + Tween-80) was 0 of 6.
